Measurements published in PMC9159632.
No constants are given. Whether binding was seen depends on the method and setting. In cells and extracts the contact can be indirect. These calls come from enrichment with a bait or labelling near it, and not all partners need be listed.

Protein sequences, listed by entry. Tags and fused reporters are not part of them. Lines headed by an entry give the natural chain unless they say otherwise; changes in a name come on top.
UniProt I7MM25: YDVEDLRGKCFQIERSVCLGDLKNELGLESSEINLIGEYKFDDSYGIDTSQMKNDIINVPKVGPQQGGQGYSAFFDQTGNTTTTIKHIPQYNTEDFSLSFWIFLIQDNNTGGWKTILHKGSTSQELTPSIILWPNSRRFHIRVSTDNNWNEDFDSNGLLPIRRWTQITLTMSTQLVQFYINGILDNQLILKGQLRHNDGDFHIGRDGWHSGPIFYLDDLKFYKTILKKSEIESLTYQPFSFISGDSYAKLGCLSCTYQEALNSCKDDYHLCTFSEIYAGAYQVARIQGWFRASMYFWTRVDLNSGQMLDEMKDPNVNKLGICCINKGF
UniProt Q24G74: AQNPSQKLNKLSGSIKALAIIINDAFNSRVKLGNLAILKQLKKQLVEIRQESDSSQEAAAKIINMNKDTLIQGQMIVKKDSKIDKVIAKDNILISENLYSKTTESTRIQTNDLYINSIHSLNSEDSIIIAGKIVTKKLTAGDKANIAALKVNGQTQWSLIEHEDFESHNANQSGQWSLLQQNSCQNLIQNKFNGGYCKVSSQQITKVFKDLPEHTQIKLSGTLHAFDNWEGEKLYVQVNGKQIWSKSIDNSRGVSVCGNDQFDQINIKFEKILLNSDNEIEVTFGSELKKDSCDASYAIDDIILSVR
UniProt W7XFY1: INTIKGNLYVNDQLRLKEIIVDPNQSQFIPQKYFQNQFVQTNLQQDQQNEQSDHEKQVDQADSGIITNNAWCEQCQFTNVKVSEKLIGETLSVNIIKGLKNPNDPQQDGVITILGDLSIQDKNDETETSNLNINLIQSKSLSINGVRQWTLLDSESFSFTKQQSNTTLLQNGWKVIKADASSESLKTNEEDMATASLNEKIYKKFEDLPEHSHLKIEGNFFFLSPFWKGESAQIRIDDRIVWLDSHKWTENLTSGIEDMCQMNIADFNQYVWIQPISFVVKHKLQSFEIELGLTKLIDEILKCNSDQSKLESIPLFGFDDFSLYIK
UniProt Q23DF8: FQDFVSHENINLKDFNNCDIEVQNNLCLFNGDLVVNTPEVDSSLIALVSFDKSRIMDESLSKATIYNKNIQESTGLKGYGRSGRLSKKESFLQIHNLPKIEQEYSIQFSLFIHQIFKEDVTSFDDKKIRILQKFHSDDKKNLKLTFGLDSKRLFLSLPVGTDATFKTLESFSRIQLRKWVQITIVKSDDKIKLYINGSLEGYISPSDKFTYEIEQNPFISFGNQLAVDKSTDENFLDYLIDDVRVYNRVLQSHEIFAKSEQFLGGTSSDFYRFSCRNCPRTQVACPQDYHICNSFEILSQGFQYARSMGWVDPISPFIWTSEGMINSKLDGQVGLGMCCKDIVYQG
UniProt W7X454: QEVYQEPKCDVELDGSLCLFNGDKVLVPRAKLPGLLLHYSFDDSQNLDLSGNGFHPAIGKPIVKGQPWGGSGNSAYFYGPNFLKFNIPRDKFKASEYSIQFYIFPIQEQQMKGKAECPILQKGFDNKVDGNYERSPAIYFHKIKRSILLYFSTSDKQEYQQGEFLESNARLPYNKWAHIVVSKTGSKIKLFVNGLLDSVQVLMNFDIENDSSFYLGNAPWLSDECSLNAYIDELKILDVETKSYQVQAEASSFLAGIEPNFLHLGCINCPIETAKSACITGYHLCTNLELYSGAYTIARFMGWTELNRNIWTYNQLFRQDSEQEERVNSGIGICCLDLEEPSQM

What follows are molecules tested against Mdl1p-FLAG (Mucocyst Discharge with a LamG domain protein, FLAG-tagged) (Tetrahymena thermophila) (UniProt I7MM25) (assay: affinity purification with mass spectrometry; cryopowders of Mdl1p-FLAG-expressing and WT cells solubilized in 20 mM HEPES, 250 mM NaCl, 0.5% Triton X-100; anti-FLAG beads, 4°C; washes with 500 mM NaCl, 0.1% NP-40; eluted with LDS sample buffer; LC-MS/MS, label-free quantification; duplicates).

Molecule | binding
TTHERM_01213910 (from UniProt Q24G74) | binds
TTHERM_00141040 (protein, UniProt I7MI22 1-660) MTTDEAPIKWTGFCIDASAMQSPININGPFSFMSMDLDIIFRQIDSGQSYLQNVNNELVIKGDFGYISQDSTIFSSYEIAFKSPSEHSVGNSQTFFPLEMQVKFVSASQSKLNMAFLFSYGEESDFLNRLGFGRGVLRNLQQNQNFEIPQAFNLQHVLPSKNKFFIYKGSDTMPPCEPTIWLIGYDTLKLTQAQLSDFPTSLSYQGRDTQKKKQEIFINFNIEKEEEKKDEQEQQEDQLEELNSTDQNLHDQYNQQQVNLLNKIKDSFILLGDSTIYDPFVYGHDSEPSAKFIKDTDYIVIQKEKPDLNKMKEQVEIEEIIFEKLRDDQKARQDKIDETNNKQEYVPDKNNEQSQPDKDEKVEKNEEQSQQQSTNSAILVHKKTVKGRQDKKETVKAASDNQTSQKKEEVVEKIKQKNEGPEHYAYNKDGEWDQIPIFSIDSWPQLCQEGKQQSPINIDPQSLMVLEDGEINVYYNQLNQDPWLFNDNIKLTLGGLFGTIEFQEHLYDANFIHFHFPSEHTFGADNKRADIEFQIEHVSLYGQKLIVSILGDLSDTQTNPFLEAMGISGLEFSKFQKIDEKVQLQPRLVSLDILTDSLESFYRYEGSFTHPPCTEGVTWIISRDHVQINKIQLDNLRSLLGLKHNVRGTHDINGREIFVK | binds

More lines, now with the values ahead:

binding | Molecule
binds | TTHERM_000486279 (from UniProt W7XFY1)
binds | TTHERM_00047330 (from UniProt Q23DF8)
binds | TTHERM_000193469 (from UniProt W7X454)
